# Source: the supplement of paper PMC5949888
# Most values lie at the floor of the assay. Slopes are relative: functional sequences can read slightly below zero.
# Tested on: Saccharomyces cerevisiae PS128 hsf1 delta, HSF1(1-493) fusion
# Assay: growth estimate (transactivation domain function in HSF1 fusion, heat-shock survival) (a.u. (slope of normalised read count over time)); higher = stronger growth at 37°C, i.e. more transactivation activity
# Details: library: random library
row,Substance,growth estimate
1,RCGLRSIETPSVKRSVRTIR,< -0.25
2,RCHLFCFARFYVELPLFLDL,< -0.25
3,RCIAPGKNHCHERAG,< -0.25
4,RCIGVVIS,< -0.25
5,RCIL,< -0.25
6,RCKILIDISVRPKTP,< -0.25
7,RCKRT,< -0.25
8,RCLLLRHNCSQGDLGY,< -0.25
9,RCPAENEAQA,< -0.25
10,RCPLACMLRDVGTIPAQYFR,< -0.25
11,RCQQAYL,< -0.25
12,RCSLLLRNTGNDAAWAIFQL,< -0.25
13,RCSRMRPVYRVDRETAT,< -0.25
14,RCSSAQAGGGTG,< -0.25
15,RCTAGGLDRETVKRQVLCIC,< -0.25
16,RCVSPGLHLA,< -0.25
17,RCYLLGPVIPCKGSYASSVG,< -0.25
18,RDA,< -0.25
19,RDAKAHRRV,< -0.25
20,RDARMVERLLTGSLAKNRAA,< -0.25
21,RDDSTRLSFSLSASEHEYLG,< -0.25
22,RDE,< -0.25
23,RDESW,< -0.25
24,RDESWAFISFLVSKFSFAVS,< -0.25
25,RDFQRVE,< -0.25
26,RDFYREWAEYKESPPV,< -0.25
27,RDGRAGA,< -0.25

row,Substance,growth estimate
1,RDGRKVVCPLQGGESKIMEL,< -0.25
2,RDHYFMRFLSSLPIRLKGRS,< -0.25
3,RDI,< -0.25
4,RDIIRDEHWVRLSRIDHLPS,< -0.25
5,RDISIHRAPRLSL,< -0.25
6,RDISTTTGSNVHRGVRWVRK,< -0.25
7,RDKGHEIVSESLTYRYSRLK,< -0.25
8,RDKNFSSAVHEGVRLAFVQS,< -0.25
9,RDKNSV,< -0.25
10,RDLAVQSCDAIIQWSIAPRG,< -0.25
11,RDLGILSVRYAQRKVNRKGY,< -0.25
12,RDLGTSLRVMNVCPLRIPTG,< -0.25
13,RDLGVKRRIALPIRHGALEC,0.0112
14,RDLNEWRCRGCWFLRNHCTV,< -0.25
15,RDNPYRPRDARVAKNCQEE,< -0.25
16,RDPAVEYRWGPAFLQTVRAE,< -0.25
17,RDPLRG,< -0.25
18,RDQPAK,< -0.25
19,RDRRLLINVREIGPIGEVVT,< -0.25
20,RDRSHYGAETTSRVTSLDAV,< -0.25
21,RDSEMPLGAAPVSEGRLTGH,< -0.25
22,RDSIVP,< -0.25
23,RDTSRVDLMSHLSARNLVSV,< -0.25
24,RDVAGMHAADMPRA,< -0.25
25,RDVKEFVWGVLFPTTKQIRR,< -0.25
26,RDVLPGRYDALPSRSG,< -0.25
27,RDVRISCTQLVDESFRLS,< -0.25

row,Substance,growth estimate
1,RDWLDA,< -0.25
2,RDYGTRVRLTILWSGRHF,< -0.25
3,RDYKAAVDPEGPLGAWSVLL,< -0.25
4,REA,< -0.25
5,REAPRLAQPSYYGGIRFRQP,< -0.25
6,REASLRKK,< -0.25
7,REASMNCSAPPASELNTGLD,< -0.25
8,REATIEKGLFVRRCHDVVAM,< -0.25
9,REEAHRAKVGTRQTRSCSDY,< -0.25
10,REETQSGALTALDAKRNERV,< -0.25
11,REEVRAQYLDPRNEVGR,-0.227
12,REGAR,< -0.25
13,REGDHG,< -0.25
14,REGKYGVGGTN,< -0.25
15,REGLGRRRRRASRSHVF,< -0.25
16,REGLLDPDDARDKPPRGPVT,< -0.25
17,REGLVEESVNGMRGRFGRAS,< -0.25
18,REGYARNCSETPRR,< -0.25
19,REIGAAGLPRSATRHG,-0.245
20,REIHSFGAVVTVNGCRDIFP,< -0.25
21,REKGLNFHLHNRDQPL,< -0.25
22,REKLDRGLVADTKARLL,< -0.25
23,RELATPSTAA,< -0.25
24,RELEFRHHQAR,< -0.25
25,RELEIYLCQ,< -0.25
26,RELGSNRVSLRERLRCSCWA,< -0.25

# Looked up one by one from the list above, 3 records:
row,Substance,growth estimate
6,REASLRKK,< -0.25
3,RDYKAAVDPEGPLGAWSVLL,< -0.25
23,RELATPSTAA,< -0.25
